## Primary screen of a compound library

Protein sequences, listed by entry. Tags and fused reporters are not part of them.
UniProt E9BF75, entry or part of it: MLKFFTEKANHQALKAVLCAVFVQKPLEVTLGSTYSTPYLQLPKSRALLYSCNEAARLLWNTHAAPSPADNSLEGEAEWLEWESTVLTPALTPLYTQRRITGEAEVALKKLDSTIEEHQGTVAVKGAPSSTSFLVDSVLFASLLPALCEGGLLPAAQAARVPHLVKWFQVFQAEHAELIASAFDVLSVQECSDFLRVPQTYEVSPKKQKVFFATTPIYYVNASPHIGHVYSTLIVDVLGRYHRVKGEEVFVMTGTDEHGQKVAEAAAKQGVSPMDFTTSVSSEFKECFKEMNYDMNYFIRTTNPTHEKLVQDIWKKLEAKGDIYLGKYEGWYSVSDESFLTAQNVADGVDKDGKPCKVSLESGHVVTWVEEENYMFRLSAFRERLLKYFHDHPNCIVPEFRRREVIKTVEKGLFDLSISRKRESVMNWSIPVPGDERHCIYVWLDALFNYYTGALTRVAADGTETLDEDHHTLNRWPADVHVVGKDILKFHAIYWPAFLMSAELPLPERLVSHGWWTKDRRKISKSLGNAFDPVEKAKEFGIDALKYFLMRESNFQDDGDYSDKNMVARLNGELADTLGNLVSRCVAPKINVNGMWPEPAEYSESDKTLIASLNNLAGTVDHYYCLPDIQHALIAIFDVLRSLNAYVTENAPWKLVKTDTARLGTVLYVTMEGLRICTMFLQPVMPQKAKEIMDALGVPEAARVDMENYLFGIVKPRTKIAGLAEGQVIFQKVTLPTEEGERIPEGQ

Data taken from ChEMBL document CHEMBL3988442, “University of Dundee, Small-Polar-MMV Screening Library” (2021).

Mtb heat-shock: 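Assay on Mycobacterium tuberculosis, filed only as a heat shock assay from Cornell; the read-out is not stated. The concentration is filed as 10 mM, unlikely as a test dose, so the dose is not known. Direction is inferred from retests: higher values go with stronger inhibition. About 69,000 compounds were tested under these conditions; 1.4% (about 930) showed 50% or more at least once.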
LdMetRS: 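Methionyl-tRNA synthetase (putative), Leishmania donovani (UniProt E9BF75). Primary screen of methionyl-tRNA synthetase; the read-out is not stated. The test concentration is not given. Values are per cent inhibition. Size under these conditions: about 68,000 compounds, about 24 of them at 50% or above in at least one test.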
Mtb growth Cornell: 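Whole-cell assay for inhibitors of Mycobacterium tuberculosis growth, labelled Cornell in the record; the read-out is not stated. The concentration is filed as 10 mM, unlikely as a test dose, so the dose is not known. The record gives no direction; compounds strong in two other growth screens of this library score well above the rest, so higher reads as stronger inhibition. Of about 53,000 compounds tested this way, about 900 (1.7%) reached 50% or more in at least one test.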

All values are in %. The controls that fix the scale are not given in the record; negative values are as filed. The compounds are a random part of those screened. A dash means the value is not listed here; it may have been measured.

For CN1CCN(Cc2cn3c(n2)CN(Cc2cccnc2)CC3)CC1 the result was Mtb heat-shock: -11.6%; LdMetRS: 4.377%; Mtb growth Cornell: -26.3%.
For CNCC(=O)N1CCCC1c1nc(C(C)C)no1 (stereo not drawn) the result was Mtb heat-shock: -11.96%; LdMetRS: 10.64%; Mtb growth Cornell: -6.443%.
For CCN(CC)CCNC(=O)c1ccn(COc2cc(C)cc(C)c2)n1 the result was Mtb heat-shock: 9.854%; LdMetRS: 14.52%.
For O=C(c1cn(CC(=O)N2CCc3[nH]cnc3C2)c2ccccc12)C1CC1 the result was Mtb heat-shock: -1.207%; LdMetRS: 11.6%; Mtb growth Cornell: -10.34%.
For COCCN1C(=O)[C@H]2CC[C@@H]1CN(Cc1nnc(-c3ccccc3)o1)C2 the result was LdMetRS: 12.77%.
For COc1cccc([C@@]2(O)CC[C@@H]3CN(C(=O)c4c[nH]nc4C)C[C@@H]32)c1 the result was LdMetRS: 8.14%.
For CCN(Cc1ccccc1)C(=O)CN1CCCC(Cn2cncn2)C1 (stereo not drawn) the result was Mtb heat-shock: 0.9094%; LdMetRS: 11.81%; Mtb growth Cornell: -24.86%.
For O=C(NCCn1nc(C2CCNC2)c2cccnc21)C1CCC1 (stereo not drawn) the result was LdMetRS: 5.729%.
For COC(=O)c1cccc(C(=O)NCc2ccc(C)o2)n1 the result was Mtb heat-shock: -6.796%; LdMetRS: 12.24%; Mtb growth Cornell: 23.26%.
For O=C(c1cccc(Cl)c1)N1CCCC2(CCCNC2)C1 (stereo not drawn) the result was LdMetRS: 12.94%.
For Cc1cc(NCCc2nnc(N)s2)nc(-c2cccnc2)n1 the result was Mtb heat-shock: -5.405%; LdMetRS: 15.93%.
For CCN1C[C@@H]2CN(C(=O)c3cccn3C)C[C@@H]2C1=O the result was LdMetRS: 2.801%.
For Cc1cnn(-c2ccc(S(N)(=O)=O)cc2F)c1 the result was Mtb heat-shock: -2.791%; LdMetRS: 8.807%.
For CCOCC(=O)Nc1ccc(-n2ccc(C(N)=O)n2)cc1 the result was Mtb heat-shock: 15.42%; LdMetRS: 9.712%; Mtb growth Cornell: 27.44%.
For COc1cc(S(=O)(=O)N2CCCc3ccccc32)cc(C(=O)O)c1OC the result was Mtb heat-shock: -0.4698%; LdMetRS: 11.89%.
For CC(C)C(C)NC(=O)Nc1ccc(CS(C)(=O)=O)cc1 (stereo not drawn) the result was Mtb heat-shock: 9.024%; LdMetRS: 15.49%; Mtb growth Cornell: 4.47%.
For CS(=O)(=O)N[C@@H]1CN(C(=O)c2cccnc2)[C@@H]2CCCO[C@@H]21 the result was LdMetRS: 6.667%.
For Cc1nc(C)n(C2CCCN(C(=O)c3ccc(CN(C)C)cc3)C2)n1 (stereo not drawn) the result was Mtb heat-shock: 4.595%; LdMetRS: 15.56%.
For N#Cc1ccc(OCCCN2CCc3cncnc3C2)cc1 the result was Mtb heat-shock: 15.65%; LdMetRS: 2.347%; Mtb growth Cornell: -37.53%.
For COCc1cnc2n1CCN(C1CCC1)C2C.O=C(O)C(F)(F)F (stereo not drawn) the result was Mtb heat-shock: 4.577%; Mtb growth Cornell: 30.48%.
For CC(=O)c1cc(CN2C[C@H]3CC[C@@H]2CN(Cc2c(C)noc2C)C3)cs1 the result was LdMetRS: 11.91%.

Some entries from above, unchanged:

| compound | Mtb heat-shock | LdMetRS | Mtb growth Cornell |
|---|---|---|---|
| `N#Cc1ccc(OCCCN2CCc3cncnc3C2)cc1` | 15.65 | 2.347 | -37.53 |
| `O=C(c1cccc(Cl)c1)N1CCCC2(CCCNC2)C1` (stereo not drawn) | - | 12.94 | - |